# Laboratory results published in patent US20250283871A1, “COMPOSITIONS AND METHODS FOR MODULATING THE INTERACTION BETWEEN SS18-SSX FUSION ONCOPROTEIN AND NUCLEOSOMES” (Dana-Farber Cancer Institute, Inc., priority 2020, published 2025).
# B1: COPA (protein, UniProt P53621 1-1224, looked up)
# Coatomer subunit alpha: MLTKFETKSARVKGLSFHPKRPWILTSLHNGVIQLWDYRMCTLIDKFDEHDGPVRGIDFHKQQPLFVSGGDDYKIKVWNYKLRRCLFTLLGHLDYIRTTFFHHEYPWILSASDDQTIRVWNWQSRTCVCVLTGHNHYVMCAQFHPTEDLVVSASLDQTVRVWDISGLRKKNLSPGAVESDVRGITGVDLFGTTDAVVKHVLEGHDRGVNWAAFHPTMPLIVSGADDRQVKIWRMNESKAWEVDTCRGHYNNVSCAVFHPRQELILSNSEDKSIRVWDMSKRTGVQTFRRDHDRFWVLAAHPNLNLFAAGHDGGMIVFKLERERPAYAVHGNMLHYVKDRFLRQLDFNSSKDVAVMQLRSGSKFPVFNMSYNPAENAVLLCTRASNLENSTYDLYTIPKDADSQNPDAPEGKRSSGLTAVWVARNRFAVLDRMHSLLIKNLKNEITKKVQVPNCDEIFYAGTGNLLLRDADSITLFDVQQKRTLASVKISKVKYVIWSADMSHVALLAKHAIVICNRKLDALCNIHENIRVKSGAWDESGVFIYTTSNHIKYAVTTGDHGIIRTLDLPIYVTRVKGNNVYCLDRECRPRVLTIDPTEFKFKLALINRKYDEVLHMVRNAKLVGQSIIAYLQKKGYPEVALHFVKDEKTRFSLALECGNIEIALEAAKALDDKNCWEKLGEVALLQGNHQIVEMCYQRTKNFDKLSFLYLITGNLEKLRKMMKIAEIRKDMSGHYQNALYLGDVSERVRILKNCGQKSLAYLTAATHGLDEEAESLKETFDPEKETIPDIDPNAKLLQPPAPIMPLDTNWPLLTVSKGFFEGTIASKGKGGALAADIDIDTVGTEGWGEDAELQLDEDGFVEATEGLGDDALGKGQEEGGGWDVEEDLELPPELDISPGAAGGAEDGFFVPPTKGTSPTQIWCNNSQLPVDHILAGSFETAMRLLHDQVGVIQFGPYKQLFLQTYARGRTTYQALPCLPSMYGYPNRNWKDAGLKNGVPAVGLKLNDLIQRLQLCYQLTTVGKFEEAVEKFRSILLSVPLLVVDNKQEIAEAQQLITICREYIVGLSVETERKKLPKETLEQQKRICEMAAYFTHSNLQPVHMILVLRTALNLFFKLKNFKTAATFARRLLELGPKPEVAQQTRKILSACEKNPTDAYQLNYDMHNPFDICAASYRPIYRGKPVEKCPLSGACYSPEFKGQICRVTTVTEIGKDVIGLRISPLQFR
# B2: ATP5O (protein, UniProt P48047 24-213, looked up)
# ATP synthase peripheral stalk …: FAKLVRPPVQVYGIEGRYATALYSAASKQNKLEQVEKELLRVAQILKEPKVAASVLNPYVKRSIKVKSLNDITAKERFSPLTTNLINLLAENGRLSNTQGVVSAFSTMMSVHRGEVPCTVTSASPLEEATLSELKTVLKSFLSQGQVLKLEAKTDPSILGGMIVRIGEKYVDMSVKTKIQKLGRAMREIV
# B3: STT3A (protein, UniProt P46977 1-705, looked up)
# Dolichyl-diphosphooligosacchar …: MTKFGFLRLSYEKQDTLLKLLILSMAAVLSFSTRLFAVLRFESVIHEFDPYFNYRTTRFLAEEGFYKFHNWFDDRAWYPLGRIIGGTIYPGLMITSAAIYHVLHFFHITIDIRNVCVFLAPLFSSFTTIVTYHLTKELKDAGAGLLAAAMIAVVPGYISRSVAGSYDNEGIAIFCMLLTYYMWIKAVKTGSICWAAKCALAYFYMVSSWGGYVFLINLIPLHVLVLMLTGRFSHRIYVAYCTVYCLGTILSMQISFVGFQPVLSSEHMAAFGVFGLCQIHAFVDYLRSKLNPQQFEVLFRSVISLVGFVLLTVGALLMLTGKISPWTGRFYSLLDPSYAKNNIPIIASVSEHQPTTWSSYYFDLQLLVFMFPVGLYYCFSNLSDARIFIIMYGVTSMYFSAVMVRLMLVLAPVMCILSGIGVSQVLSTYMKNLDISRPDKKSKKQQDSTYPIKNEVASGMILVMAFFLITYTFHSTWVTSEAYSSPSIVLSARGGDGSRIIFDDFREAYYWLRHNTPEDAKVMSWWDYGYQITAMANRTILVDNNTWNNTHISRVGQAMASTEEKAYEIMRELDVSYVLVIFGGLTGYSSDDINKFLWMVRIGGSTDTGKHIKENDYYTPTGEFRVDREGSPVLLNCLMYKMCYYRFGQVYTEAKRPPGFDRVRNAEIGNKDFELDVLEEAYTTEHWLVRIYKVKDLDNRGLSRT
# System: BAF complex subunits and histone proteins
# Assay: Mass spectrometry proteomics of purified HA-SS18 WT and HA-SS18-SSX1 complexes (Tables 5A-5E)
# Design: species or system human
# Conditions: HA-SS18SSX1 purification, NE (soluble nuclear extract) fraction, HEK-293T; peptides per identified protein
Molecule,Total (total peptides),Unique (unique peptides)
B1,7,7
B2,7,7
B3,7,7

# Same assay, conditions: HA-SS18WT_NE_peptides: HA-SS18 WT complexes purified from nuclear extract (NE), HEK-293T; label = protein identified (Gene Symbol)
Molecule,Total (peptides),Unique (peptides)
B1,5,5
B2,4,4
B3,5,5
